Test results: publication PMC9563440
Numbering of substitutions follows the chain as printed. Results are given in words; binding and its absence hold for the method and conditions named. Binding seen in cells or lysates may run through a third protein. Some results given as binding are weak or reduced against the parent protein; the word gives no strength. For some assays here: Where a sequence is shown, tags or fusion partners need not be part of it.

Chains of the proteins cited; added tags and fusions are not shown.
UniProt P56539: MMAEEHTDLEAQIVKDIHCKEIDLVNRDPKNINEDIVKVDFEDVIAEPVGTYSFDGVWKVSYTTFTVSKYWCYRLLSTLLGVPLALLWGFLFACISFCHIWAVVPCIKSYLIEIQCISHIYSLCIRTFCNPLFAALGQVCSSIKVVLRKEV

Experiments:
[1] = molecular target: T1, caveolin-3 (Cav-3), rat heart (rat (endogenous in left ventricle tissue)) (UniProt P51638); experiment: co-IP; rat left ventricle tissue lysates (RIPA buffer), 50 ug lysate immunoprecipitated with 1 ug anti-Cav-3 or anti-Nav1.5 overnight, protein A/G-agarose 4 h at 4 °C, Western blot; normal hearts and hearts after I/R, with scramble or PIASy shRNA
T1 sequence: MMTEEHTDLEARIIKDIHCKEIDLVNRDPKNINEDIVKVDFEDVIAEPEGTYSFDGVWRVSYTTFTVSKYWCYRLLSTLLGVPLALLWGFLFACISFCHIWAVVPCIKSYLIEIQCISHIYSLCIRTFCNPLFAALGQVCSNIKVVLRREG

[2] = molecular target: T2, Flag-tagged Cav-3 (human Cav-3) (human) (UniProt P56539); experiment: co-IP; lysates of HEK293 cells 48 h after co-transfection with Cav-3, Nav1.5 and SUMO machinery (SUMO2/3, ubc9, PIASy); immunoprecipitated with anti-Cav-3 (or anti-Nav1.5), protein A/G-agarose, Western blot
T2 sequence: T1 sequence with T3A, R12Q, I14V, E49V, R59K, N142S, R149K, G151V

Substance | binding [1] | binding [2]
voltage-gated sodium channel 1.5 (Nav1.5), rat heart (from UniProt P15389 1-2019) | binds | –
wild-type (WT) human Nav1.5 (from UniProt Q14524 1-2016) | – | binds
